Results on 40 compounds are retold here after PubChem BioAssay AID445 (National Center for Advancing Translational Sciences (NCATS), 2006).

A short description of this experiment: IkB Signaling. The following applies: ABC-DLBCL IkBa-CBG/CBR dual luciferase ratio (green luciferase fused to IkBa over red control in OCI-Ly3 lymphoma cells), 4 h. In short, it runs like this:
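In this assay, an IκBα–CBG68 fusion accumulates when IKK-driven degradation is blocked; native CBR normalizes for cell number. OCI-Ly3 cells were treated 4 h with compound and doxycycline, then green and red light read after Chroma-Glo addition.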

Where [1] appears, read: measured here: control luc red channel unless noted.

Structures are written as SMILES. The list shows a part of the results. Shown are side measurements of this screen, not its main read-out; they come without a call. Compounds called inactive in the main read-out are mostly missing here. Words in brackets tell the shape of the fitted curve; partial curves, single points and poor fits give uncertain potencies.

`COC(=O)c1ccc(OCC2c3cc(OC)c(OC)cc3CCN2C(=O)c2ccccc2C)cc1` (stereo unspecified): the concentration at half-maximal activity (AC50) (commonly the midpoint of the concentration-response curve, whichever way the signal moves) under setting [1] is 39.8 µM [falling, single point].
Still for that read-out and setting: with `Cc1nc(N2CCCC2)c2c(C(=O)N3CCN(c4ccc(F)cc4)CC3)c(C)oc2n1` the figure was 5.01 µM [falling, single point].
Regarding `Cc1ccc(-c2nnc(Nc3ccc(Br)cc3)c3ccccc23)cc1S(=O)(=O)NCC1CCCO1` (stereo unspecified), the concentration at half-maximal activity (AC50) under setting [1] was 3.98 µM [falling, full curve].
Turning to `CCc1cccc(CC)c1NC(=O)c1c(C)oc2ccc(O)c(CN3CCN(C)CC3)c12`, the AC50 under setting [1] is 31.6 µM [falling, single point].
On to `Cc1cccc(N2CCN(C(=O)Cn3ncc4c3-c3cc(C)ccc3OC4)CC2C)c1` (stereo unspecified), for which the concentration at half-maximal activity (AC50) under setting [1] is 25.1 µM [falling, partial curve].
`Cc1nc2cc(C(=O)NCCC3=CCCCC3)ccc2n1-c1ccc(Br)cc1`: the AC50 under setting [1] is 2.51 µM [rising, single point].
Still for that read-out and setting: with `Cc1cc(C)c(NC(=O)CCN2C(=O)c3ccccc3Sc3ncccc32)c(C)c1` the figure was 3.98 µM [rising, partial curve]; with `CSc1nc(Nc2ccc(C)cc2C)cc(-c2ccccc2)n1`, 12.6 µM [falling, partial curve].
The same measure, in the same setting: with `CN(Cc1ccccc1)C(=O)C1CCN(S(=O)(=O)c2ccc3c(c2)oc(=O)n3C)CC1` the figure was 39.8 µM [falling, single point].
Regarding `COc1ccc(-c2cc(-c3ccccc3O)[nH]n2)cc1OC`, the half-maximal activity concentration (AC50) under setting [1] is 7.94 µM [falling, full curve].
As to `CCCCCNC(=O)c1ccc2c(c1)ncn2-c1cccc(C)c1`, the half-maximal activity concentration (AC50) under setting [1] is 20 µM [falling, single point].
As to `Cc1cccc(C(=O)Nc2nnc(S(=O)(=O)N(C)Cc3ccc(Cl)cc3)s2)c1`, under setting [1], the AC50 was 2 µM [falling, partial curve].
Same read-out and setting: with `Cc1ccc(C(=O)NCC(c2ccc3c(c2)OCO3)N2CCN(c3ccc(F)cc3)CC2)cc1` (stereo unspecified) the figure was 31.6 µM [falling, partial curve]; with `Cc1ccccc1C(=O)Nc1ccccc1OCc1cc(=O)n2ccccc2n1`, 15.8 µM [falling, partial curve].
For the compound `Cc1ccc2nc(NC(=O)CCNS(=O)(=O)c3cccs3)sc2c1`, the AC50 under setting [1] is 10 µM [falling, partial curve].
Same read-out and setting: with `COc1ccccc1N1CCN(C(=O)c2sc3nc(-c4ccccc4)cn3c2C)CC1` the figure was 10 µM [falling, partial curve]; with `CCN(CC)c1nc2c(S(=O)(=O)c3ccccc3)nnn2c2ccc(Cl)cc12`, 0.316 µM [falling, full curve]; with `Cc1cccc(-c2nc(S(=O)(=O)c3ccc(Cl)cc3)c(N3CCCCCC3)o2)c1`, 12.6 µM [falling, partial curve].
For the compound `COc1cccc(-c2nc(SCC(=O)NCC3CCCO3)c(-c3ccc(C)cc3)[nH]2)c1` (stereo unspecified), the concentration at half-maximal activity (AC50) under setting [1] was 12.6 µM [falling, partial curve].
`CCOc1ccc(NC(=O)c2cc3c(C)nn(-c4ccccc4)c3s2)cc1`: the AC50 under setting [1] was 12.6 µM [falling, partial curve].
For `COc1ccc(NC(=O)c2ccc3c(=O)n4nc(Nc5ccccc5C)sc4nc3c2)cc1Cl`, the AC50 under setting [1] was 25.1 µM [falling, single point].
On the same count and under the same terms, with `Cc1cccc(Cn2cc(/C=C(/C#N)C(=O)Nc3cccc(Cl)c3)c3ccccc32)c1` the figure was 0.631 µM [falling, full curve]; with `CCN(C(=O)c1cc2c(=O)oc3ccccc3c2s1)c1ccc(C)c(C)c1`, 10 µM [falling, partial curve]; with `O=C(Cn1nc(-c2ccccc2)nc(Cc2ccccc2)c1=O)Nc1ccc(Cl)cc1`, 5.01 µM [falling, single point].
On to `Cc1oc(-c2ccc(C(=O)NCCN(C)C)cc2)nc1CS(=O)(=O)c1ccccc1`, for which the AC50 under setting [1] was 1.26 µM [falling, full curve, poor fit].
The same measure, in the same setting: with `COc1ccc(Br)cc1C(=O)Nc1ccc(-c2nc3ncccc3o2)cc1C` the figure was 15.8 µM [rising, partial curve].
For `CCc1ccc(NC(=O)CSc2ccc3nc(-c4ccc(OC)cc4)cn3n2)cc1`, the concentration at half-maximal activity (AC50) under setting [1] is 10 µM [falling, partial curve].
With `COc1ccc(NC(=O)c2ccc(-c3ccc(-c4noc(C)n4)cc3C)cc2)cc1N1CCN(C)CC1`, the half-maximal activity concentration (AC50) under setting [1] was 39.8 µM [falling, single point].
As for `CC(=O)NC1Sc2ccccc2N=C1c1ccccc1` (stereo unspecified), the AC50 under setting [1] is 2.51 µM [rising, partial curve].
Take `CCC(=O)N1CCc2cc(Br)cc(S(=O)(=O)N3CCC(C(=O)Nc4ccccc4F)CC3)c21`: under setting [1], the AC50 was 25.1 µM [falling, partial curve].
Same read-out and setting: with `Cc1cc(N2CCN(C(=O)c3ccco3)CC2)nc(-c2ccccc2)n1` the figure was 12.6 µM [falling, partial curve]; with `O=C(Nc1ccc(Cl)cc1Cl)c1cc(S(=O)(=O)N2CCCCCC2)ccc1F`, 10 µM [falling, partial curve, poor fit]; with `Cc1cc(C)cc(C(=O)n2nc(C)c(S(=O)(=O)N3CCCCCC3)c2C)c1`, 15.8 µM [falling, partial curve].
In the case of `CCCCS(=O)(=O)c1oc(-c2cccs2)nc1S(=O)(=O)c1ccc(F)cc1`, the AC50 under setting [1] was 12.6 µM [falling, partial curve].
For `Cc1c(C(=O)N2CCN(c3ccc(F)cc3)CC2)sc2nc3n(c(=O)c12)CCC3`, the AC50 under setting [1] was 6.31 µM [rising, single point].
Regarding `O=C1CC(c2cc(F)cc(F)c2)c2cc3c(cc2N1)OCO3` (stereo unspecified), under setting [1], the half-maximal activity concentration (AC50) is 39.8 µM [falling, single point].
Same read-out and setting: with `CCN(C(=O)CSc1nnc(Cn2nnc3ccccc32)o1)c1nc(-c2ccccc2)cs1` the figure was 15.8 µM [falling, partial curve]; with `CCCOc1ccc(NC(=O)CC2C(=O)N(c3ccc(C)cc3)C(=O)N2CCc2ccncc2)cc1` (stereo unspecified), 39.8 µM [falling, single point].
With `COc1ccc(C(=O)c2ccc(OC)c(N)c2)cc1N`, the AC50 is 31.6 µM [rising, partial curve] (measured here: IkB-luc green channel) and 10 µM [rising, partial curve] (measured here: control luc red channel).
On to `Cc1ccc(CN(C(=O)COc2ccccc2[N+](=O)[O-])c2ccccn2)cc1`, for which the half-maximal activity concentration (AC50) under setting [1] was 39.8 µM [falling, single point].
